Values of other authors as cited in US20210196654A1, “METHOD OF TREATING CONDITIONS” (Clexio Biosciences Ltd., priority 2019, published 2021).
Where two headings read alike, the source gives them in different places. The name of at least one read-out is uncertain.

Conditions: cited from earlier work

Which results are given for `CNC1(c2ccccc2Cl)CCCCC1=O` (stereo not drawn) [ketamine, dl 2-(2-chlorophenyl)-2(methylamino) cyclohexanone]?
relative bioavailability (intramuscular ketamine, Clements et al (1982)): 93%; relative bioavailability (intranasal, Malinovsky et al (1996)): 50%; relative bioavailability (oral ketamine, Clements et al (1982)): 17%; relative bioavailability (rectal, Malinovsky et al (1996)): 30%; relative bioavailability (rectal, Yanagihara et al (2003)): 30%; relative bioavailability (sublingual, Yanagihara et al (2003)): 30%
